Experimental data from the supplement of paper PMC10849652.
The list shows a part of the results.

By UniProt entry, the sequences of proteins in these tests, tags left out. Where a name states a change or a piece, a line headed by the entry shows the natural chain unless it says otherwise.
UniProt P40425: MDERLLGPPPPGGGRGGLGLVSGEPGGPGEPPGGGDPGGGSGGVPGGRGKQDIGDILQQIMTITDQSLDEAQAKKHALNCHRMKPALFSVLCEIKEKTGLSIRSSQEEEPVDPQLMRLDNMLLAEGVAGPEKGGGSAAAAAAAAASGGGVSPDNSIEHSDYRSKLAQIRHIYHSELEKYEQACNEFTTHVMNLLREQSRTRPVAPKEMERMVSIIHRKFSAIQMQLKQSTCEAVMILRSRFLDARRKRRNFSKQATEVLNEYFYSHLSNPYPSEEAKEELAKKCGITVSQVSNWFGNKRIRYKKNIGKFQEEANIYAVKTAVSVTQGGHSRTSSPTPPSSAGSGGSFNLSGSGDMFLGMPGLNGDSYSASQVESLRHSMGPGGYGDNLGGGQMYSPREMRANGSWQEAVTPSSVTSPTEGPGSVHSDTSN
UniProt Q9H0N5: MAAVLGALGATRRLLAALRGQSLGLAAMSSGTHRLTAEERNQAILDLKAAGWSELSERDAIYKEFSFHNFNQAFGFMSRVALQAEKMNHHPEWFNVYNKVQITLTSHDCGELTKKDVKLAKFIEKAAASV
UniProt Q29RF7: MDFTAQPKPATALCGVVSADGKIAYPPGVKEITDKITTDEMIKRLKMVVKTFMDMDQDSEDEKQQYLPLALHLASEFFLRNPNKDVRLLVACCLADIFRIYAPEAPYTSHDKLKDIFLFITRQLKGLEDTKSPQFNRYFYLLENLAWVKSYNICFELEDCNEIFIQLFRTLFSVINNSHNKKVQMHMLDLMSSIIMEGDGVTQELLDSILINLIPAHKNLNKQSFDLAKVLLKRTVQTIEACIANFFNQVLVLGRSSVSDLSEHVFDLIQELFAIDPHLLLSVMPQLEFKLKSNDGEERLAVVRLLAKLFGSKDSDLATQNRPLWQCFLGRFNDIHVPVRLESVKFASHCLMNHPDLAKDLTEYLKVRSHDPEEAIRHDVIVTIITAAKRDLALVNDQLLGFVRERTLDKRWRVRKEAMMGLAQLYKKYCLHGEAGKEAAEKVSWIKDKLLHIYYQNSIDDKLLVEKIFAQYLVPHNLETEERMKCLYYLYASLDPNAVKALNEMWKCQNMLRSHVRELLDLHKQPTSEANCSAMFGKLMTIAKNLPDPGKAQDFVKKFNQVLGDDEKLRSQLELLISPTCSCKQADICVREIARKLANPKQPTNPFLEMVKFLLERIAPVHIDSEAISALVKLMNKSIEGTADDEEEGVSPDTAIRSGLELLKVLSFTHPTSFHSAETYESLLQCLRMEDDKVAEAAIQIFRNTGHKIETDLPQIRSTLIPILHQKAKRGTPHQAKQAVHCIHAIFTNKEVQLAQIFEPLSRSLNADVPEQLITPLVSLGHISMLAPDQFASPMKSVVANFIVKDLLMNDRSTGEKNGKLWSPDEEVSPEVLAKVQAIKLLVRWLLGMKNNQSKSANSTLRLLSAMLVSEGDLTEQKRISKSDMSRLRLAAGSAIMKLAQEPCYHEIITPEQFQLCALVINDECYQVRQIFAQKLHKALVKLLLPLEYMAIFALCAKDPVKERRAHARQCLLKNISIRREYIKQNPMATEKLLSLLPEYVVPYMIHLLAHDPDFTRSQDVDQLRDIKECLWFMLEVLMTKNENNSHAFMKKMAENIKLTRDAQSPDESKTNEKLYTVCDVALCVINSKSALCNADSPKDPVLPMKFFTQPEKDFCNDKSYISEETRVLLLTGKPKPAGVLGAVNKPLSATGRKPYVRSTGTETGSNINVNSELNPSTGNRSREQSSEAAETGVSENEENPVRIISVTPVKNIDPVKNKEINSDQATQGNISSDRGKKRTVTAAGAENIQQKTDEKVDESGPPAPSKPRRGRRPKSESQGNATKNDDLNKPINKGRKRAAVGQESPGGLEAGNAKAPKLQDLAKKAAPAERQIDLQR
UniProt Q9HBI1: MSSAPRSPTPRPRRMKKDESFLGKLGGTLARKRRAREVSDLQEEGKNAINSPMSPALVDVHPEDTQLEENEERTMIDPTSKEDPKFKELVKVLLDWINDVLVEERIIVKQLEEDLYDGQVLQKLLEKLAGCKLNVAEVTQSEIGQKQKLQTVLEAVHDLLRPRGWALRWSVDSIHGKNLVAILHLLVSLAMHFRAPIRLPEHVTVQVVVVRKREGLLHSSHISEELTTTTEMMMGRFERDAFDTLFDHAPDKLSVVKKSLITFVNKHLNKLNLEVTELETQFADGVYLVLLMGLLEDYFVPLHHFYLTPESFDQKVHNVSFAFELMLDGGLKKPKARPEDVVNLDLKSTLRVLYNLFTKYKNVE
UniProt Q8N5Y8: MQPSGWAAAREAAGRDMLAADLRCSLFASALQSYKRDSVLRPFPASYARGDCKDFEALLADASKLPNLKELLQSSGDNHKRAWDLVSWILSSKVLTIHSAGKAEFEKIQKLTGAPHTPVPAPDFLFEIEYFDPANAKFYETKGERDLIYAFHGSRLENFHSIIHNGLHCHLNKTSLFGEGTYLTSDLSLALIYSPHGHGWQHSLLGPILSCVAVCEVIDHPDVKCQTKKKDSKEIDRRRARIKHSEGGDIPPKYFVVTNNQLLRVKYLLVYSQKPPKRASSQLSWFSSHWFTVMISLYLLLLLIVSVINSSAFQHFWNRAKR
UniProt Q5EBL8: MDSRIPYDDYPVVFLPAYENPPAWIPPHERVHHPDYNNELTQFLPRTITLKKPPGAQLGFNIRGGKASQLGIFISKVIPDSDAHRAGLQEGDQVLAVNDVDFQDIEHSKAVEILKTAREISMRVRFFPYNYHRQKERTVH
UniProt P11177, whole entry, looked up: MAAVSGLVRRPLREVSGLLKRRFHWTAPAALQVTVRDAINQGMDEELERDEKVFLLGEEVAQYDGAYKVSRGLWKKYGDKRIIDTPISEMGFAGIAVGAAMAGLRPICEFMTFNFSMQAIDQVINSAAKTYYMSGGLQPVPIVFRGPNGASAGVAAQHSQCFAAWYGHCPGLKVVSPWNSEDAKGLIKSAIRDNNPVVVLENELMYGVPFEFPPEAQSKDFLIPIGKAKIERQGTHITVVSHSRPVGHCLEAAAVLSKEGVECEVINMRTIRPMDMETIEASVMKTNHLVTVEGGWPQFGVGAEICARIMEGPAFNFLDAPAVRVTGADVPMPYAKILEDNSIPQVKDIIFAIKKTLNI
UniProt P18669: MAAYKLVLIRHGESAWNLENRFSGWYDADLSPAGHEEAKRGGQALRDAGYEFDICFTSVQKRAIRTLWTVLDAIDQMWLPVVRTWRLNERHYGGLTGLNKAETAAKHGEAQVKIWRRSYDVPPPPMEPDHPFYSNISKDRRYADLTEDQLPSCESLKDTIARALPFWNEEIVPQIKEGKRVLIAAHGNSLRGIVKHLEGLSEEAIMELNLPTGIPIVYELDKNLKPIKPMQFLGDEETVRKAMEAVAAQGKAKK
UniProt P08237: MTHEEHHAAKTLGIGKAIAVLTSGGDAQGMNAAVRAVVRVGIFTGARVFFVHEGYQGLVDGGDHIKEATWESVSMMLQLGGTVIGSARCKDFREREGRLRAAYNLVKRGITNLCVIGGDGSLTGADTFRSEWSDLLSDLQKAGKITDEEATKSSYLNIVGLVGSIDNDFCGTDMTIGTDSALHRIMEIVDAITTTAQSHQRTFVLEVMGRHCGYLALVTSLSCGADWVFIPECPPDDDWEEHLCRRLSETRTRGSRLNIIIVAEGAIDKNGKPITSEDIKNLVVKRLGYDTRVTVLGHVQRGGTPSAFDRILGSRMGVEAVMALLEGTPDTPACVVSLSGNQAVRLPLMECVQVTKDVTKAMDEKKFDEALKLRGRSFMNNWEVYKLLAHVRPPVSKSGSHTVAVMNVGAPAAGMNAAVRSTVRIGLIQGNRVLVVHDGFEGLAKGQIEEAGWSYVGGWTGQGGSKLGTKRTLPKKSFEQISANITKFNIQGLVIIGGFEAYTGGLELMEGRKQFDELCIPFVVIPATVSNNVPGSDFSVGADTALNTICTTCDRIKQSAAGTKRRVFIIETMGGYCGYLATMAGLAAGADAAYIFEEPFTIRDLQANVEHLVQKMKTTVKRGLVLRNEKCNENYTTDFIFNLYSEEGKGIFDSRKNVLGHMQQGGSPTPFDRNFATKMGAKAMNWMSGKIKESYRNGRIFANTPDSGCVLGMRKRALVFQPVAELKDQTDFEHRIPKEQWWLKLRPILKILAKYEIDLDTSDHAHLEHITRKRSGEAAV
UniProt P12955: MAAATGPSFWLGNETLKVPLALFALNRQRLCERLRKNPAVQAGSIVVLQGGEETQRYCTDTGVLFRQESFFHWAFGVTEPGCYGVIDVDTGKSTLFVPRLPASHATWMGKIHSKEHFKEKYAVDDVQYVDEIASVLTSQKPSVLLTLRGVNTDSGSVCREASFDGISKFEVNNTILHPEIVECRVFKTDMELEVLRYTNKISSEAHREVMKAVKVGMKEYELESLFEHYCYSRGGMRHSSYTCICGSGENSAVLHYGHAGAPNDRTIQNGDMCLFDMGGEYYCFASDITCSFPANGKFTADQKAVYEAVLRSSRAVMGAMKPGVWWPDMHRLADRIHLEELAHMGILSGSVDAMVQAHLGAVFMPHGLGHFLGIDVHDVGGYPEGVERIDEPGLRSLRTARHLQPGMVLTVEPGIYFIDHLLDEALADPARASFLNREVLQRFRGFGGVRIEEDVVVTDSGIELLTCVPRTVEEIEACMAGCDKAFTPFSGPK
UniProt Q8WUM4: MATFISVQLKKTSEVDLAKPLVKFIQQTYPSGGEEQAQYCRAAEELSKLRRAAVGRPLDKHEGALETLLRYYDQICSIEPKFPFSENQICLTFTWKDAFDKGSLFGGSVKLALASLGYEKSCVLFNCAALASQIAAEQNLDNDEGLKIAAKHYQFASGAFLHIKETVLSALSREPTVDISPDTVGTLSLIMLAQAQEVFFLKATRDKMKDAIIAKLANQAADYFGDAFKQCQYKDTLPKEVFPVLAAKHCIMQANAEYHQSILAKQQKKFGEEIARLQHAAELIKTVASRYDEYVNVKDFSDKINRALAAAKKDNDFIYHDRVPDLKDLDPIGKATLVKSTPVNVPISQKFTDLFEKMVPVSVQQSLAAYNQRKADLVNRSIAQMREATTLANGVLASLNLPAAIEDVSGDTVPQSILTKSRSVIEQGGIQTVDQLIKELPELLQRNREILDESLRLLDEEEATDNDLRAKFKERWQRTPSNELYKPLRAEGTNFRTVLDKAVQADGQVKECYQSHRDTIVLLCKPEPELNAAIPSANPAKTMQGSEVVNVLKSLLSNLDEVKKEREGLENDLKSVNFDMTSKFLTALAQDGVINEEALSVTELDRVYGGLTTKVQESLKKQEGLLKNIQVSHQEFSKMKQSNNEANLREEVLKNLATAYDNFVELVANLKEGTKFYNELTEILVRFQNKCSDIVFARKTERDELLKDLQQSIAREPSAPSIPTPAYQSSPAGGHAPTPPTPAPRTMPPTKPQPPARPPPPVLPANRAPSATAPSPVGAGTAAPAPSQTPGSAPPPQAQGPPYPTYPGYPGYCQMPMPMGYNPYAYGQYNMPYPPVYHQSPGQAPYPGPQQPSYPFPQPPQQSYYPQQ
UniProt Q86TB9: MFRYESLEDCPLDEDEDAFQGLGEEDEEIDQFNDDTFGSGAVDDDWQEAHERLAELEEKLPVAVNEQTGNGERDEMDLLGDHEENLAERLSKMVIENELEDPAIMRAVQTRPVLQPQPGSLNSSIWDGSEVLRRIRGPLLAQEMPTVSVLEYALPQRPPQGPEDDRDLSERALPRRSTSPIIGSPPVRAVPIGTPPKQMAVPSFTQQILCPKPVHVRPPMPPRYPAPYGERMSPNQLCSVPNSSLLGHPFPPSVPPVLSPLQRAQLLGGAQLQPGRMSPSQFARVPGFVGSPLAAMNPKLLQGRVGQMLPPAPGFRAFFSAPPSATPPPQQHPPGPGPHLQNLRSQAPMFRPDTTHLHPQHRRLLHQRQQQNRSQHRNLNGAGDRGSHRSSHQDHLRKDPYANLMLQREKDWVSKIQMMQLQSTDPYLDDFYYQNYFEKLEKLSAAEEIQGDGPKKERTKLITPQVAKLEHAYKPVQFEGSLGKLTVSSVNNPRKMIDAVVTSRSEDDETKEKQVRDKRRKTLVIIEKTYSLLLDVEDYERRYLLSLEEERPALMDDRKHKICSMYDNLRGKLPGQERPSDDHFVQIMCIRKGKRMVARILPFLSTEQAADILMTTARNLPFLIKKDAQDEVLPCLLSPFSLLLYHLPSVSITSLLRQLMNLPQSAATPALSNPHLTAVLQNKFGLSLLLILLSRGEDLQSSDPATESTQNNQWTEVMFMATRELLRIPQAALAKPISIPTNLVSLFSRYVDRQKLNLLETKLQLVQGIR
UniProt Q9HBH1: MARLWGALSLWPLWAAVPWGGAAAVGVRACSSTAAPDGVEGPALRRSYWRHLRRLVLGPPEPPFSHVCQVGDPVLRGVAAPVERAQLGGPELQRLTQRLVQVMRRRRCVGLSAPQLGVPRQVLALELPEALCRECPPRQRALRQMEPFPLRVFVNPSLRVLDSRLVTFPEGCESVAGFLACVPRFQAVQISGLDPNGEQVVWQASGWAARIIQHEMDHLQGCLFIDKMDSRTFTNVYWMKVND

What was measured:
Experiment in all cases: log2 fold change, soluble protein after heating vs DMSO (PISA); higher = thermal stabilisation; K562 lysate, 10 uM; active = over 0.2 and 3.5 SD of the protein, either way, in both replicates (recomputed)
lapatinib = compound: CS(=O)(=O)CCNCc1ccc(-c2ccc3ncnc(Nc4ccc(OCc5cccc(F)c5)c(Cl)c4)c3c2)o1 [lapatinib]
In short: (§1)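 Pellets of K562 cells were dounce-homogenised in PBS pH 7.4 with 1 mM MgCl2, and the crude extract was held at 1 mg/mL protein for a 30 min treatment with 10 μM compound. Aliquots were heated for 3 min over 48°C-58°C and pooled before NP-40 was added to 0.5% at 4°C. The supernatant from 21,000xg for 90 min was quantified by TMTpro 16plex LC-MS/MS with channel sums equalised. Values are reported from duplicates as log-two fold change in thermal stability relative to solvent controls.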

pictilisib = compound: CS(=O)(=O)N1CCN(Cc2cc3nc(-c4cccc5[nH]ncc45)nc(N4CCOCC4)c3s2)CC1 [pictilisib]
In short: as §1

crizotinib = compound: C[C@@H](Oc1cc(-c2cnn(C3CCNCC3)c2)cnc1N)c1c(Cl)ccc(F)c1Cl [crizotinib]
In short: as §1

[1] = compound: C[C@H](C1=CC=C(C=C1)C(=O)NC2=C3C=CNC3=NC=C2)N
In short: as §1

duvelisib = compound: C[C@H](Nc1ncnc2nc[nH]c12)c1cc2cccc(Cl)c2c(=O)n1-c1ccccc1 [duvelisib]
In short: as §1

gandotinib = compound: Cc1cc(Nc2cc(CN3CCOCC3)c3nc(C)c(Cc4ccc(Cl)cc4F)n3n2)n[nH]1 [gandotinib]
In short: as §1

tozasertib = compound: Cc1cc(Nc2cc(N3CCN(C)CC3)nc(Sc3ccc(NC(=O)C4CC4)cc3)n2)n[nH]1 [tozasertib]
In short: as §1

doramapimod = compound: Cc1ccc(-n2nc(C(C)(C)C)cc2NC(=O)Nc2ccc(OCCN3CCOCC3)c3ccccc23)cc1 [doramapimod]
In short: as §1

bafetinib = compound: Cc1ccc(NC(=O)c2ccc(CN3CC[C@H](N(C)C)C3)c(C(F)(F)F)c2)cc1Nc1nccc(-c2cncnc2)n1 [bafetinib]
In short: as §1

[2] = compound: Cc1cccc(CC(=O)N2CCc3c2ccc(-c2cn(C)c4ncnc(N)c24)c3F)n1
In short: as §1

nilotinib = compound: Cc1cn(-c2cc(NC(=O)c3ccc(C)c(Nc4nccc(-c5cccnc5)n4)c3)cc(C(F)(F)F)c2)cn1 [nilotinib]
In short: as §1

[3] = compound: Cc1nc(Nc2n[nH]c3c2CN(C(=O)N[C@H](CN(C)C)c2ccccc2)C3(C)C)c2sccc2n1
In short: as §1

dasatinib = compound: Cc1nc(Nc2ncc(C(=O)Nc3c(C)cccc3Cl)s2)cc(N2CCN(CCO)CC2)n1 [dasatinib]
In short: as §1

[4] = compound: Cc1ncc(-c2ccnc(Nc3ccc(S(C)(=O)=O)cc3)n2)n1C(C)C
In short: as §1

[5] = compound: Cn1cc(-c2ccc3c(c2)CCN3C(=O)Cc2cccc(C(F)(F)F)c2)c2c(N)ncnc21
In short: as §1

quisinostat = compound: Cn1cc(CNCC2CCN(c3ncc(C(=O)NO)cn3)CC2)c2ccccc21 [quisinostat]
In short: as §1

tipifarnib = compound: Cn1cncc1[C@@](N)(c1ccc(Cl)cc1)c1ccc2c(c1)c(-c1cccc(Cl)c1)cc(=O)n2C [tipifarnib]
In short: as §1

[6] = compound: NC(=O)Nc1cc(-c2cccc(F)c2)sc1C(=O)N[C@H]1CCCNC1
In short: as §1

[7] = compound: NC(=O)c1cnc(N[C@@H]2CCCC[C@@H]2N)nc1Nc1cccc(-n2nccn2)c1
In short: as §1

[8] = compound: NC1(c2ccc(-c3nc4ccn5c(=O)[nH]nc5c4cc3-c3ccccc3)cc2)CCC1
In short: as §1

Target | log2 fold change (lapatinib) | log2 fold change (pictilisib) | log2 fold change (crizotinib) | log2 fold change [1] | log2 fold change (duvelisib) | log2 fold change (gandotinib) | log2 fold change (tozasertib) | log2 fold change (doramapimod) | log2 fold change (bafetinib) | log2 fold change [2] | log2 fold change (nilotinib) | log2 fold change [3] | log2 fold change (dasatinib) | log2 fold change [4] | log2 fold change [5] | log2 fold change (quisinostat) | log2 fold change (tipifarnib) | log2 fold change [6] | log2 fold change [7] | log2 fold change [8]
PAXX (UniProt Q9BUH6) | inactive: -0.015 | inactive: -0.015 | inactive: -0.007 | inactive: -0.017 | inactive: 0.016 | inactive: 0.035 | inactive: 0.023 | inactive: 0.007 | inactive: 0.002 | inactive: -0.017 | inactive: 0.007 | inactive: 0.038 | inactive: 0.043 | inactive: -0.028 | inactive: -0.012 | inactive: -0.048 | inactive: 0.019 | inactive: 0 | inactive: 0.012 | inactive: 0.001
PBX2 (UniProt P40425) | inactive: -0.017 | inactive: -0.062 | inactive: 0.039 | inactive: -0.089 | inactive: 0.006 | inactive: -0.038 | inactive: 0 | inactive: -0.023 | inactive: -0.016 | inactive: -0.017 | inactive: -0.014 | inactive: -0.009 | inactive: -0.023 | inactive: -0.015 | inactive: 0.001 | inactive: -0.006 | inactive: 0.012 | inactive: -0.038 | inactive: 0.065 | inactive: -0.006
PCBD2 (UniProt Q9H0N5) | inactive: -0.014 | inactive: -0.009 | inactive: -0.051 | active: -0.228 | inactive: 0.028 | inactive: 0.141 | inactive: 0.031 | inactive: 0.008 | inactive: -0.063 | inactive: 0.096 | inactive: 0.01 | inactive: -0.045 | inactive: 0.011 | inactive: -0.063 | inactive: 0.051 | inactive: -0.08 | inactive: -0.101 | inactive: 0.033 | inactive: 0.069 | inactive: -0.066
PDS5A (UniProt Q29RF7) | inactive: -0.024 | inactive: -0.053 | inactive: -0.123 | inactive: -0.09 | inactive: 0.023 | inactive: -0.127 | inactive: 0.008 | inactive: 0.006 | inactive: -0.075 | inactive: 0.125 | inactive: -0.013 | inactive: -0.002 | inactive: -0.081 | inactive: -0.003 | inactive: 0.008 | inactive: -0.113 | inactive: 0.001 | inactive: 0.047 | inactive: 0.011 | inactive: -0.023
PARVB (UniProt Q9HBI1) | inactive: -0.034 | inactive: -0.03 | inactive: -0.031 | inactive: -0.026 | inactive: -0.03 | inactive: -0.055 | inactive: 0.026 | inactive: -0.025 | inactive: -0.043 | inactive: -0.011 | inactive: -0.02 | inactive: -0.017 | inactive: -0.017 | inactive: 0.043 | inactive: -0.001 | inactive: -0.007 | inactive: -0.023 | inactive: 0.015 | inactive: 0.017 | inactive: -0.038
PARP16 isoform 3 (UniProt Q8N5Y8) | inactive: -0.035 | inactive: -0.04 | inactive: -0.037 | inactive: 0.015 | inactive: 0.012 | inactive: 0.085 | inactive: -0.052 | inactive: -0.025 | inactive: 0.078 | inactive: 0.095 | inactive: -0.055 | inactive: -0.036 | inactive: -0.012 | inactive: 0.051 | inactive: 0.028 | inactive: 0.039 | inactive: 0.21 | inactive: 0.021 | inactive: 0.035 | inactive: 0.049
PCYOX1 (UniProt Q9UHG3) | inactive: -0.088 | inactive: -0.025 | inactive: 0.027 | inactive: 0.075 | inactive: -0.029 | inactive: -0.024 | inactive: 0.014 | inactive: 0.012 | inactive: 0.031 | inactive: -0.033 | inactive: 0.075 | inactive: 0.044 | inactive: 0.111 | inactive: -0.031 | inactive: -0.123 | inactive: 0.006 | inactive: -0.025 | inactive: -0.002 | inactive: -0.01 | inactive: 0.015
PDZD11 isoform 2 (UniProt Q5EBL8) | inactive: -0.01 | inactive: -0.068 | inactive: -0.038 | inactive: 0.028 | inactive: -0.02 | inactive: 0.043 | inactive: 0.069 | inactive: 0.03 | inactive: 0.044 | inactive: -0.06 | inactive: -0.01 | inactive: -0.053 | inactive: 0.003 | inactive: 0.037 | inactive: -0.055 | inactive: 0.01 | inactive: 0.065 | inactive: 0.028 | inactive: 0.07 | inactive: 0.015
PARP1 (UniProt P09874) | inactive: -0.011 | inactive: 0.018 | inactive: 0.006 | inactive: 0.023 | inactive: -0.006 | inactive: -0.098 | inactive: 0.019 | inactive: -0.019 | inactive: -0.011 | inactive: -0.039 | inactive: -0.014 | inactive: 0.012 | inactive: -0.017 | inactive: 0.009 | inactive: 0.001 | inactive: 0.029 | inactive: 0.017 | inactive: 0.015 | inactive: -0.008 | inactive: -0.001
PDHB (UniProt P11177) | inactive: 0.002 | inactive: -0.033 | inactive: -0.041 | inactive: 0.012 | inactive: 0.035 | inactive: -0.002 | inactive: -0.007 | inactive: -0.017 | inactive: -0.03 | inactive: 0.028 | inactive: 0.011 | inactive: -0.012 | inactive: -0.036 | inactive: 0.02 | inactive: 0.019 | inactive: -0.026 | inactive: 0.022 | inactive: 0.031 | inactive: 0.015 | inactive: 0.034
PGAM1 (UniProt P18669) | inactive: 0.05 | inactive: -0.008 | inactive: 0.036 | inactive: 0.168 | inactive: 0.025 | inactive: -0.033 | inactive: -0.022 | inactive: 0.002 | inactive: 0.105 | inactive: -0.149 | inactive: 0.028 | inactive: 0.02 | inactive: 0.02 | inactive: -0.009 | inactive: -0.066 | inactive: -0.004 | inactive: 0.021 | inactive: -0.021 | inactive: -0.065 | inactive: 0.015
PFKM isoform 3 (UniProt P08237) | inactive: 0.004 | inactive: -0.032 | inactive: -0.012 | inactive: -0.031 | inactive: -0.046 | inactive: 0.006 | inactive: -0.013 | inactive: 0 | inactive: -0.018 | inactive: 0.023 | inactive: 0 | inactive: 0.005 | inactive: 0.012 | inactive: 0.006 | inactive: 0.025 | inactive: -0.039 | inactive: -0.011 | inactive: 0.013 | inactive: -0.003 | inactive: 0.012
PEPD (UniProt P12955) | inactive: -0.004 | inactive: -0.051 | inactive: -0.005 | inactive: -0.024 | inactive: -0.044 | inactive: 0.032 | inactive: -0.006 | inactive: 0.001 | inactive: -0.007 | inactive: -0.005 | inactive: 0.121 | inactive: -0.023 | inactive: 0.037 | inactive: -0.02 | inactive: -0.04 | inactive: -0.032 | inactive: 0.039 | inactive: 0.021 | inactive: -0.022 | inactive: -0.027
PDCD6IP isoform 2 (UniProt Q8WUM4) | inactive: 0 | inactive: -0.015 | inactive: -0.015 | inactive: 0.071 | inactive: -0.009 | inactive: -0.09 | inactive: 0.024 | inactive: -0.008 | inactive: -0.006 | inactive: -0.019 | inactive: -0.018 | inactive: 0.007 | inactive: -0.042 | inactive: 0.004 | inactive: 0.022 | inactive: 0.002 | inactive: 0.016 | inactive: -0.001 | inactive: 0.018 | inactive: 0.002
PATL1 (UniProt Q86TB9) | inactive: 0.058 | inactive: 0.051 | inactive: -0.016 | inactive: -0.034 | inactive: 0.024 | inactive: -0.043 | inactive: 0.012 | inactive: -0.035 | inactive: -0.02 | inactive: -0.005 | inactive: 0.009 | inactive: 0.019 | inactive: -0.047 | inactive: 0.006 | inactive: -0.044 | inactive: 0.005 | inactive: -0.034 | inactive: 0.071 | inactive: -0.006 | inactive: -0.025
PDF (UniProt Q9HBH1) | inactive: 0.027 | inactive: -0.016 | inactive: -0.067 | inactive: 0.018 | inactive: -0.076 | inactive: -0.019 | inactive: 0.029 | inactive: 0.027 | inactive: -0.162 | inactive: 0.025 | inactive: 0.014 | inactive: 0.002 | inactive: -0.037 | inactive: 0.02 | inactive: 0.067 | inactive: -0.064 | inactive: -0.012 | inactive: 0.022 | inactive: -0.034 | inactive: 0.056

Complete entries as entered above. Values in the order: log2 fold change (lapatinib)	log2 fold change (pictilisib)	log2 fold change (crizotinib)	log2 fold change [1]	log2 fold change (duvelisib)	log2 fold change (gandotinib)	log2 fold change (tozasertib)	log2 fold change (doramapimod)	log2 fold change (bafetinib)	log2 fold change [2]	log2 fold change (nilotinib)	log2 fold change [3]	log2 fold change (dasatinib)	log2 fold change [4]	log2 fold change [5]	log2 fold change (quisinostat)	log2 fold change (tipifarnib)	log2 fold change [6]	log2 fold change [7]	log2 fold change [8]
PGAM1 (UniProt P18669) reads inactive: 0.05	inactive: -0.008	inactive: 0.036	inactive: 0.168	inactive: 0.025	inactive: -0.033	inactive: -0.022	inactive: 0.002	inactive: 0.105	inactive: -0.149	inactive: 0.028	inactive: 0.02	inactive: 0.02	inactive: -0.009	inactive: -0.066	inactive: -0.004	inactive: 0.021	inactive: -0.021	inactive: -0.065	inactive: 0.015
PATL1 (UniProt Q86TB9) reads inactive: 0.058	inactive: 0.051	inactive: -0.016	inactive: -0.034	inactive: 0.024	inactive: -0.043	inactive: 0.012	inactive: -0.035	inactive: -0.02	inactive: -0.005	inactive: 0.009	inactive: 0.019	inactive: -0.047	inactive: 0.006	inactive: -0.044	inactive: 0.005	inactive: -0.034	inactive: 0.071	inactive: -0.006	inactive: -0.025
